# Test results: the supplement of paper PMC3334620
# Whole data set: some 33,000 sequences, median “E-score (-0.5 to 0.5)” near -0.0014, cut for the highest 2% near 0.25. The list shows a part of the results.
# Target: T1, Cad1 (UniProt P24813)
# T1 sequence: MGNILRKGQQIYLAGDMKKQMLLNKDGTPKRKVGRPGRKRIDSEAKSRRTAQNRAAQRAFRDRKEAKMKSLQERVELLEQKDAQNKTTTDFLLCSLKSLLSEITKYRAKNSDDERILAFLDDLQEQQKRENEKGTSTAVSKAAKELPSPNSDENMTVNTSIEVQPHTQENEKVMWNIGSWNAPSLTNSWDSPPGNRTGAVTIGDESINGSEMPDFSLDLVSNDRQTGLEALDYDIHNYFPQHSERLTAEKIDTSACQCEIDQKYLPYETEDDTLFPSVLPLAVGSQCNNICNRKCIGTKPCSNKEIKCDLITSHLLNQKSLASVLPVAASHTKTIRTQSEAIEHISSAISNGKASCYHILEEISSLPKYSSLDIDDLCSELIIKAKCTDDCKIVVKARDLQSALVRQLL
# Assay: PBM E-score (8-mer binding enrichment) (E-score (-0.5 to 0.5)); higher = stronger / more preferred TF binding
# Conditions: protein concentration: 100 nM; construct: GST-full length
# Procedure, shortened: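 The E-score, a modified Wilcoxon-Mann-Whitney statistic, was computed by the Universal PBM Analysis Suite for every ungapped eight-base word pooled with its reverse complement. Scans behind it were normalised with masliner after bound GST-tagged yeast transcription factors were detected with fluorescent anti-GST. The proteins, at about 100-200 nM, had been applied to universal all-10-mer Agilent arrays made double-stranded by primer extension.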
row,Sequence,PBM E-score
1,CCTAGTGA,-0.171
2,ATTCAGAC,0.243
3,CTAAAGGC,0.0134
4,CGTTTTTA,0.237
5,GGGCATAC,-0.095
6,ATTTCAGA,0.0497
7,CGCAACGA,-0.00619
8,AACTTCGG,0.152
9,GTTTCATA,-0.0376
10,CAGATGCG,-0.172
11,TTCGGCAA,0.0512
12,CTCAAAAA,0.0179
13,AAACTAGG,-0.101
14,AGCCCTCA,-0.148
15,GCCCGTAC,-0.145
16,CCACAAAC,0.13
17,CGTTCCAA,0.0867
18,TAAGAAAA,0.112
19,GTTGAACA,-0.145
20,GGTCCCCA,-0.332
21,CTCCGGGC,-0.177
22,CCCCGAGC,-0.223
23,TCAAGCCA,-0.0296
24,CTATCAAA,0.0734
25,GCGTGCCC,-0.257

row,Sequence,PBM E-score
1,GAAAGGTA,0.0785
2,AGATGCTG,-0.0805
3,CCTACGAG,-0.0915
4,CCTAGAGA,-0.0455
5,GATGCTCC,-0.134
6,GCAGCTGC,0.0808
7,TCGGCGCA,-0.0298
8,AAAAACCC,-0.0261
9,CTAGTGTA,0.12
10,GGTCTGAC,0.0118
11,CTGTCCAA,-0.00895
12,CTTACTTC,0.0569
13,CGAAAGTA,-0.017
14,CCATTTCG,-0.114
15,GACTCGGA,-0.105
16,GGGCGCCA,0.0498
17,CCACCCTA,0.0274
18,ATCCTGGG,-0.0923
19,CCATTTAG,-0.127
20,CCGATTAG,0.0691
21,AACATAAC,0.135
22,ACGGAAGG,-0.142
23,CTCGGTTA,-0.057
24,CACCTGGA,-0.0281
25,TCTTGTAA,0.0502

row,Sequence,PBM E-score
1,AGTTTTGA,-0.0909
2,AAATCTAA,0.0765
3,CGGGGGGC,-0.372
4,GGGCCCAA,0.0394
5,CACGTGTC,-0.0173
6,GGGATTGA,-0.0619
7,GATCCTCC,-0.218
8,ACTCTAAT,0.0207
9,GCAGCAAA,0.0811
10,ACTCCAAC,-0.0177
11,GTGCCAGA,-0.192
12,GGCTCGAC,-0.0711
13,GCCTCACC,-0.14
14,TATCTCGA,0.0369
15,AGTGTAAA,0.039
16,CAGTATGC,0.00317
17,CGCTTGGA,0.057
18,ATCGATGG,0.0786
19,AAGGTTGC,-0.00934
20,AGAGGCCT,-0.101
21,CGGTATAC,-0.00774
22,GGTATGCA,-0.027
23,CCATATTC,0.102
24,ATCAGCCC,0.0703
25,CAATGTCC,-0.0506

row,Sequence,PBM E-score
1,ACCTTCGG,0.00966
2,GCTATAAC,-0.295
3,AGGAAGGC,-0.135
4,GTGTTTCA,-0.0607
5,ATGTAACA,0.168
6,AAAGGAAA,0.00578
7,CTCGGCGA,0.0436
8,GGGCCACC,-0.0143
9,CCCCACCC,-0.00434
10,CCCTACGC,-0.174
11,CTTCAGAA,-0.0225
12,GCCTGAAC,-0.106
13,CCATCACA,-0.00503
14,AACTGATG,0.166
15,CACGGATG,0.0931
16,GAACATTA,0.152
17,ATTGCCTG,0.0283
18,AGGGCCTG,-0.0711
19,CGAGTCTA,-0.231
20,TCAAATCA,0.101
21,CAAGGGGA,-0.12
22,AAAGGGTA,-0.142
23,AAGCGCCC,-0.155
24,CTGCCCGA,-0.129
25,AAAAACCT,0.162

row,Sequence,PBM E-score
1,AGTATTAG,0.299
2,AGCAACCA,0.0389
3,CGGTGACC,-0.12
4,AAATCGGC,0.0248
5,ACTCACCT,-0.184
6,GTTGCTCA,0.0699
7,GAGTTTCC,0.0578
8,AGCGCCAA,-0.0679
9,CGGGACAG,0.064
10,GTTACCAA,0.0957
11,ACAGAGTC,-0.0962
12,AAAGAGCA,0.0793
13,ACGCGCGA,0.139
14,AACTCATA,-0.0244
15,AGTTATAT,0.101
16,CCGAGAGA,0.0842
17,CGGACAGC,0.224
18,ACTCTAGG,-0.236
19,GAACTATA,0.09
20,GTACGAAA,0.144
21,ACTGCTAT,-0.11
22,CACAGCAA,0.189
23,ACCGGTAT,-0.0274
24,CGACGTAA,0.0772
25,CGACTCAA,0.0885

row,Sequence,PBM E-score
1,GTCCCCGA,-0.113
2,ATCCTGAA,0.109
3,AGACATCG,-0.013
4,CGATTACA,0.197
5,ATGCCAAA,-0.146
6,CGGTAAAC,-0.11
7,AAGGTGGA,-0.0565
8,AATGGCGC,0.0139
9,CGCTTTGA,0.0116
10,AGGGGACC,-0.236
11,ATAATAAA,0.243
12,TACCATCA,-0.13
13,GGGTAAGA,-0.186
14,AACTCGCG,0.187
15,CTAATACC,0.0652
16,GCCTACTA,0.102
17,ATTAGTTG,0.216
18,ACTAGTCC,0.0411
19,ACGCTTAA,0.0746
20,ACACCAGC,-0.0756
21,GCGCAAGC,0.104
22,ACTCGGTC,-0.0667
23,TAGACTCA,-0.0267
24,CACTAAGA,0.0589
25,CGGGCCAA,-0.278

row,Sequence,PBM E-score
1,ATCCTGTC,0.0469
2,ATAGCTCA,-0.0999
3,AACATAGT,0.0142
4,GCATAAAC,-0.00386
5,CTAAGTAC,0.0659
6,CACATCAC,0.0723
7,AAGAGGAC,-0.0291
8,AGCTGATA,0.109
9,AAAAAGAC,0.0788
10,TCAGACGA,0.0605
11,CACCTTTC,-0.0798
12,TCACCCGA,0.0127
13,AGAGCAAT,-0.241
14,AAGAGCGG,0.0693
15,ATGGTCCC,-0.189
16,CGGTACTC,-0.123
17,GACATTGC,-0.069
18,ATATTTAA,0.272
19,CTGGGTGA,-0.0833
20,GCAACGCA,-0.18
21,ATCGTAAA,0.06
22,GGCGTGTA,0.0333
